Source: the supplement of paper PMC11732987, “Enantioselective OTUD7B fragment discovery through chemoproteomics screening and high-throughput optimisation” (Communications Chemistry, 2025)
This is one part of the list. The data scatter; read single values as rough.

Target: T1, BMS1 C317 (UniProt Q14692)
T1 sequence (whole entry): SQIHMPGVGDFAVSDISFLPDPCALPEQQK
Experiment: log2 mean competition ratio of IA-DTB cysteine labelling (DMSO/compound) (log2 ratio); higher = stronger cysteine engagement by compound
Conditions: 50 µM; treatment time: 4 h; cell line lysate: HEK293T
Experimental: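 IA-DTB competitive cysteine chemoproteomics in HEK293T RIPA lysate. Lysates were treated with compound 29 or 30 at 50 or 200 µM for 4 h, then IA-DTB (500 µM, 1 h), trypsin-digested, NeutrAvidin-enriched and analysed by diaPASEF. Competition ratio = intensity DMSO / intensity compound (n=4 treated, n=64 DMSO); binding: mean log2 CR ≥ 1 and p ≤ 0.05 plus QC filters. Target is the cysteine site.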

Row | SMILES | log2 mean competition ratio
1 | O=C(CCl)N[C@H]1CCCc2ccccc21 | -0.279
2 | O=C(CCl)N[C@@H]1CCCc2ccccc21 | 0.537

Same assay, conditions: 200 µM; treatment time: 4 h; cell line lysate: HEK293T

Row | SMILES | log2 mean competition ratio
3 | O=C(CCl)N[C@H]1CCCc2ccccc21 | 0.37
4 | O=C(CCl)N[C@@H]1CCCc2ccccc21 | 0.274
